Results are given in words; binding and its absence hold for the method and conditions named. Binding seen in cells or lysates may run through a third protein. Binding can be weak; no strength is given. Sequences can lack the tags named with a protein.
Tests used:
[1] = biological target: FLAG-RagC (Drosophila); experiment: co-IP; Kc167 cells transfected with FLAG-RagA and FLAG-RagC (wild type or active-locked mutants) and tagged prey, anti-FLAG immunoprecipitation; with or without amino acids
[2] = biological target: FLAG-RagA (Drosophila); experiment: as above

B1: tagged eIF3-S2 (protein, UniProt O02195 1-326)
chain: MRPLMLQGHERSITQIKYNREGDLLFSCSKDQKPNVWYSLNGERLGTYDGHQGAVWCLDVDWESRKLITGAGDMTAKIWDVEYGTVIASIPTKSSVRTSNFSFSGNQAAYSTDKAMGQSCELFLIDVRNADSSLSEQEPTLRIPMTESKITSMLWGPLDETIITGHDNGNIAIWDIRKGQKVVDSGTDHSAGINDMQLSKDGTMFVTASKDTTAKLFDSESLMCLKTYKTERPVNSAAISPIMDHVVLGGGQDAMEVTTTSTKAGKFDSRFFHLIYEEEFARLKGHFGPINSLAFHPDGKSYASGGEDGFVRVQTFDSTYFENIFE
binding [1]: binds
binding [2]: binds
